Laboratory results as given in paper PMC5080441, “A direct-sensing galactose chemoreceptor recently evolved in invasive strains of Campylobacter jejuni” (Nature Communications, 2016).

Key:
[1] = target: T1, CheV (Campylobacter jejuni) (UniProt Q0PBM1); test: two-hybrid; yeast two-hybrid; AD-CcrG^sig as prey with BD fusions of the partner; as described in ref. 24
T1 sequence: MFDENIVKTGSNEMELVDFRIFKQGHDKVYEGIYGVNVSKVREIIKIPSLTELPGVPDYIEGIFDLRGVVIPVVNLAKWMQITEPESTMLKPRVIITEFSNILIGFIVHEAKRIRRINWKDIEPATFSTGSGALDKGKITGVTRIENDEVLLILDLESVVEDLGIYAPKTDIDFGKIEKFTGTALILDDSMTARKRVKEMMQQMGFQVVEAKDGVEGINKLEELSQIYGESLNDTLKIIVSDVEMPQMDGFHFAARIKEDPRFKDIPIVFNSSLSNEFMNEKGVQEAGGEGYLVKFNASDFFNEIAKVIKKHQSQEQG

[2] = target: CcrG signalling domain (CcrG^sig), residues 562-707 of CcrG (Tlp11) (Campylobacter jejuni (strain 520)); test: two-hybrid; yeast two-hybrid; BD-CcrG^sig as bait; analysed on intermediate stringency medium containing 1 mM 3-AT to suppress autonomous activation by BD-CcrG^sig

## CcrG signalling domain (CcrG^sig), residues 562-707 of CcrG (Tlp11) (Campylobacter jejuni (strain 520)) (domain or fragment)
[1]
  binding: binds

B1: CheV (protein, UniProt Q0PBM1 1-318)
chain: MFDENIVKTGSNEMELVDFRIFKQGHDKVYEGIYGVNVSKVREIIKIPSLTELPGVPDYIEGIFDLRGVVIPVVNLAKWMQITEPESTMLKPRVIITEFSNILIGFIVHEAKRIRRINWKDIEPATFSTGSGALDKGKITGVTRIENDEVLLILDLESVVEDLGIYAPKTDIDFGKIEKFTGTALILDDSMTARKRVKEMMQQMGFQVVEAKDGVEGINKLEELSQIYGESLNDTLKIIVSDVEMPQMDGFHFAARIKEDPRFKDIPIVFNSSLSNEFMNEKGVQEAGGEGYLVKFNASDFFNEIAKVIKKHQSQEQG
[2]
  binding: binds

B2: CheW (protein, UniProt Q0PBM3 1-173)
chain: MSNEKLEQILQKQQTQMAGPDVDQREDDIIQLVGFVVGDEEYAIPILNIQEIIKPIEYTRVPSVPDYVLGVFNMRGNVMPLIDLAQRFHLGSSKMTPQTRYIVLRGETNGTGVGGNAGFVIDRLTEAIKIHRNRIDPPPETLVKDKGMIYGIGKRDENILTILKVEALLKREF
[2]
  binding: binds

These are yes or no findings as the source states them, for the method shown. A result given as binding can be weak or reduced; the word gives no strength.
